In US8901156B2, “Compounds and methods” (Tempero Pharmaceuticals, Inc., priority 2010, dated 2014):
Where a name gives a salt, the structure may show the parent alone. Some entries share one result that the patent states for a list of compounds.

Amino acid sequences for entries named in this document (tags omitted). Residues count along the entry.
UniProt Q9UKV0, 1-1066 isoform Q9UKV0-5: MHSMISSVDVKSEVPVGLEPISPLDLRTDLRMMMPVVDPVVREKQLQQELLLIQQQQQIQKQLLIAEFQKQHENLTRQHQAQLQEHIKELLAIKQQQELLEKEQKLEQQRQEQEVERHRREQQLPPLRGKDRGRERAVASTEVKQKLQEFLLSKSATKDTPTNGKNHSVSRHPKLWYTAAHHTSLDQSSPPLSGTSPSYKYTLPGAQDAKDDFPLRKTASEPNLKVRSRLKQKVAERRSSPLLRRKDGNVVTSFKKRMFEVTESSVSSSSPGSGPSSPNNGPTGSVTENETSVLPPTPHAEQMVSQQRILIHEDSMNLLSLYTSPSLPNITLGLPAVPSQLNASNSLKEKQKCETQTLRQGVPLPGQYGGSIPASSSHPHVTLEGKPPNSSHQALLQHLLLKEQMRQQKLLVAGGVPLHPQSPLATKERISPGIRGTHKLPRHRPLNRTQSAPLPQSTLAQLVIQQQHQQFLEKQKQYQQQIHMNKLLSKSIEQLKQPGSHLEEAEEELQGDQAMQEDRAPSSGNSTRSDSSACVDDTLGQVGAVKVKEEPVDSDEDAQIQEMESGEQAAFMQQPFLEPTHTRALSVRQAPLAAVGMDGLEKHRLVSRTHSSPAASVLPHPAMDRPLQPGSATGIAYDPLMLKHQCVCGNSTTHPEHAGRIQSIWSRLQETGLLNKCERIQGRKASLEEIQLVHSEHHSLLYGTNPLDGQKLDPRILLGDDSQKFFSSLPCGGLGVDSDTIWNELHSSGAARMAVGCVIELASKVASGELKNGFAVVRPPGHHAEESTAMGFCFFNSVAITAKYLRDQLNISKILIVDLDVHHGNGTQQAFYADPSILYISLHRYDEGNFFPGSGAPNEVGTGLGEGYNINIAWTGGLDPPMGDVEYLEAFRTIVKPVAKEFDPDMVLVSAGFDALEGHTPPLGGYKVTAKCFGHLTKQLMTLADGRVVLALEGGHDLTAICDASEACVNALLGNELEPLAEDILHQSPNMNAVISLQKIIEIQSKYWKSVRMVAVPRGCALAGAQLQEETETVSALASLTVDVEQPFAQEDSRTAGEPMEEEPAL

Biological target: T1, Recombinant HDAC9 isoform 4 (Homo sapiens, UniProt Q9UKV0)
T1 construct: purchased BPS Bioscience
Assay: Histone Deacetylase 9 (HDAC9) inhibition assay, fluorogenic substrate
Assay type: biochemical
Conditions: mean of a minimum of 2 experiments; 11 point 3x dilution series from 100 uM; substrate 4.5 uM

Row | Structure (SMILES) | mean pIC50, inhibition of HDAC9
1 | O=C(NCCc1nc(-c2ccc(F)cc2)cs1)c1cccc(-c2noc(C(F)(F)F)n2)c1 [Example 29, N-(2-(4-(4-Fluorophenyl)thiazol-2-yl)ethyl)-3-(5-(trifluoromethyl)-1,2,4-oxadiazol-3-yl)benzamide] | greater than 4.8
2 | O=C(NCCc1coc(-c2ccc(F)cc2)n1)c1cncc(-c2noc(C(F)(F)F)n2)c1 [Example 71, N-(2-(2-(4-Fluorophenyl)oxazol-4-yl)ethyl)-5-(5-(trifluoromethyl)-1,2,4-oxadiazol-3-yl)nicotinamide] | greater than 4.8
3 | CN1CCC(CNC(=O)c2cncc(-c3noc(C(F)(F)F)n3)c2)(c2cccc(-c3ccccc3)c2)CC1 [Example 136, N-((4-([1,1′-Biphenyl]-3-yl)-1-methylpiperidin-4-yl)methyl)-5-(5-(trifluoromethyl)-1,2,4-oxadiazol-3-yl)nicotinamide] | greater than 4.8
4 | CC(C)(CNC(=O)c1cccc(-c2noc(C(F)(F)F)n2)c1)c1cnc(-c2ccc(F)cc2)o1 [Example 99, N-(2-(2-(4-Fluorophenyl)oxazol-5-yl)-2-methylpropyl)-3-(5-(trifluoromethyl)-1,2,4-oxadiazol-3-yl)benzamide] | greater than 4.8
5 | CC(C)(CNC(=O)c1cccc(-c2noc(C(F)(F)F)n2)c1)c1nc(-c2ccc(Cl)cc2)cs1 [Example 25, N-(2-(4-(4-Chlorophenyl)thiazol-2-yl)-2-methylpropyl)-3-(5-(trifluoromethyl)-1,2,4-oxadiazol-3-yl)benzamide] | greater than 4.8
6 | CC(C)(CNC(=O)c1cncc(-c2ccc(C(=O)C(F)(F)F)s2)c1)c1nc(-c2ccc(F)cc2)n[nH]1 [Example 97, N-(2-(3-(4-Fluorophenyl)-1H-1,2,4-triazol-5-yl)-2-methylpropyl)-5-(5-(2,2,2-trifluoroacetyl)thiophen-2-yl)nicotinamide] | greater than 4.8
7 | O=C(NCCc1coc(-c2ccc(F)cc2)n1)c1cccc(-c2noc(C(F)(F)F)n2)c1 [Example 120, N-(2-(2-(4-Fluorophenyl)oxazol-4-yl)ethyl)-3-(5-(trifluoromethyl)-1,2,4-oxadiazol-3-yl)benzamide] | greater than 4.8
8 | COc1ccc(-c2noc(C(F)(F)F)n2)cc1C(=O)NCC(C)(C)c1coc(-c2ccc(F)cc2)n1 [Example 98, N-(2-(2-(4-Fluorophenyl)oxazol-4-yl)-2-methylpropyl)-2-methoxy-5-(5-(trifluoromethyl)-1,2,4-oxadiazol-3-yl)benzamide] | greater than 4.8
9 | O=C(NCCC(O)c1coc(-c2ccc(F)cc2)n1)c1cccc(-c2noc(C(F)(F)F)n2)c1 (stereo not shown) [Example 110, N-(3-(2-(4-Fluorophenyl)oxazol-4-yl)-3-hydroxypropyl)-3-(5-(trifluoromethyl)-1,2,4-oxadiazol-3-yl)benzamide] | greater than 4.8
10 | O=C(NCCc1csc(-c2ccc(Cl)cc2)n1)c1cccc(-c2noc(C(F)(F)F)n2)c1 [Example 51, N-(2-(2-(4-Chlorophenyl)thiazol-4-yl)ethyl)-3-(5-(trifluoromethyl)-1,2,4-oxadiazol-3-yl)benzamide] | greater than 4.8
11 | O=C(NCC1(c2cccc(Br)c2)CCOCC1)c1cccc(-c2noc(C(F)(F)F)n2)c1 [Example 34, N-((4-(3-Bromophenyl)tetrahydro-2H-pyran-4-yl)methyl)-3-(5-(trifluoromethyl)-1,2,4-oxadiazol-3-yl)benzamide] | greater than 4.8
12 | O=C(NCCc1coc(-c2ccc(Cl)cc2)n1)c1cccc(-c2noc(C(F)(F)F)n2)c1 [Example 128, N-(2-(2-(4-Chlorophenyl)oxazol-4-yl)ethyl)-3-(5-(trifluoromethyl)-1,2,4-oxadiazol-3-yl)benzamide] | greater than 4.8
13 | CC(CNC(=O)c1cncc(-c2noc(C(F)(F)F)n2)c1)c1cnc(-c2ccccc2)n1C (stereo not shown) [Example 93, N-(2-(1-Methyl-2-phenyl-1H-imidazol-5-yl)propyl)-5-(5-(trifluoromethyl)-1,2,4-oxadiazol-3-yl)nicotinamide] | greater than 4.8
14 | CC(C)(CNC(=O)c1cccc(-c2ncc(C(=O)C(F)(F)F)s2)c1)c1coc(-c2ccc(F)cc2)n1 [Example 114, N-(2-(2-(4-Fluorophenyl)oxazol-4-yl)-2-methylpropyl)-3-(5-(2,2,2-trifluoroacetyl)thiazol-2-yl)benzamide] | greater than 4.8
15 | CC(C)(CNC(=O)c1coc(-c2noc(C(F)(F)F)n2)n1)c1coc(-c2ccc(F)cc2)n1 [Example 92, N-(2-(2-(4-Fluorophenyl)oxazol-4-yl)-2-methylpropyl)-2-(5-(trifluoromethyl)-1,2,4-oxadiazol-3-yl)oxazole-4-carboxamide] | greater than 4.8
16 | CN1CCC(CNC(=O)c2cccc(-c3noc(C(F)(F)F)n3)c2)(c2coc(-c3ccc(Cl)cc3)n2)CC1 [Example 103, N-((4-(2-(4-Chlorophenyl)oxazol-4-yl)-1-methylpiperidin-4-yl)methyl)-3-(5-(trifluoromethyl)-1,2,4-oxadiazol-3-yl)benzamide hydrochloride] | greater than 4.8
17 | CC(C)(CNC(=O)c1cccc(-c2ccc(C(=O)C(F)F)s2)c1)c1coc(-c2ccc(F)cc2)n1 [Example 113, 3-(5-(2,2-Difluoroacetyl)thiophen-2-yl)-N-(2-(2-(4-fluorophenyl)oxazol-4-yl)-2-methylpropyl)benzamide] | greater than 4.8
18 | CC(C)(CNC(=O)c1cncc(-c2noc(C(F)(F)F)n2)c1)c1nc(-c2ccc(F)cc2)cs1 [Example 60, N-(2-(4-(4-Fluorophenyl)thiazol-2-yl)-2-methylpropyl)-6-(6-(trifluoromethyl)-1,2,4-oxadiazol-3-yl)nicotinamide] | greater than 4.8
19 | O=C(NCC1(N2CCc3ccccc3C2)CCOCC1)c1cccc(-c2noc(C(F)(F)F)n2)c1 [Example 56, N-((4-(3,4-Dihydroisoquinolin-2(1H)-yl)tetrahydro-2H-pyran-4-yl)methyl)-3-(5-(trifluoromethyl)-1,2,4-oxadiazol-3-yl)benzamide] | greater than 4.8
20 | CC(C)(CNCc1cccc(-c2noc(C(F)(F)F)n2)c1)c1coc(-c2ccc(F)cc2)n1 [Example 82, 2-(2-(4-Fluorophenyl)oxazol-4-yl)-2-methyl-N-(3-(5-(trifluoromethyl)-1,2,4-oxadiazol-3-yl)benzyl)propan-1-amine] | greater than 4.8
21 | FC(F)(F)c1nc(-c2cccc(CCCCc3nc(-c4ccccc4)cs3)c2)no1 [Example 83, 3-(3-(4-(4-Phenylthiazol-2-yl)butyl)phenyl)-5-(trifluoromethyl)-1,2,4-oxadiazole] | greater than 4.8
22 | O=C(NCC1(c2nc(-c3ccccc3)n[nH]2)CCOCC1)c1cccc(-c2noc(C(F)(F)F)n2)c1 [Example 11, N-((4-(3-Phenyl-1H-1,2,4-triazol-5-yl)tetrahydro-2H-pyran-4-yl)methyl)-3-(5-(trifluoromethyl)-1,2,4-oxadiazol-3-yl)benzamide] | greater than 4.8
